The list shows only some results of the screen, not a fair sample: it is rich in T/C values a quarter to a half above the control, in often repeated tests (any T/C) and in doses without a T/C. Further doses and runs are listed elsewhere. T/C is the treated group as % of the vehicle group. Some entries give survivors of the animals treated and no T/C: the source files T/C as zero there, which appears to mark a toxic dose or a test without result, not a measured value. Some survivor counts are full or nearly so, which does not show that the dose was tolerated: survival well below the control is almost never listed, so the zero probably covers shortened survival too. Survivors were counted at the toxicity check, usually on the fifth day, unless a day is given; later deaths do not show. Schedule codes are those of the source, read here as Q, the interval in days (D) or hours (H), X, the number of doses. Some entries hold several experiments; the results are listed from low to high. For survival time, this PubChem deposit counts one and a half times the control or more as active, and values a quarter to a half above the control carry no call in these data; other NCI protocols may use other cut-offs. Marks such as (2×) give the number of equal values in this list. Some T/C values carry the count of animals alive at the toxicity check (mostly the fifth day); where none is given, no animal had died by that day.
Tested on: BDF1 mice, P388 leukemia ip, median survival T/C
Assay: NCI In Vivo Anticancer Drug Screen. Data for tumor model P388 Leukemia (intraperitoneal) in B6D2F1 (BDF1) mice
Details: T/C endpoint: median survival time, higher T/C = longer survival
How it was run: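 Read-out is survival of treated animals expressed relative to the vehicle group, as a T/C ratio.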

[1] = dose: 100.0 mg/kg/injection, schedule: Q01DX009 (ip), vehicle: saline with Tween-80
[2] = dose: 200.0 mg/kg/injection, schedule: Q01DX009 (ip), vehicle: saline with Tween-80
[3] = dose: 400.0 mg/kg/injection, schedule: Q01DX009 (ip), vehicle: saline with Tween-80
[4] = dose: 50.0 mg/kg/injection, schedule: Q01DX009 (ip), vehicle: saline
[5] = dose: 12.5 mg/kg/injection, schedule: Q01DX009 (ip), vehicle: saline

## CN(C)C1C(=O)C(C(N)=O)=C(O)C2(O)C(=O)C3=C(O)c4c(O)cccc4C(C)(O)C3C(O)C12 (centres undefined)
dose: 50.0 mg/kg/injection, schedule: Q01DX010 (ip), vehicle: water
  T/C: 127 and 127 % of control [5 of 6 alive]
dose: 75.0 mg/kg/injection, schedule: Q01DX010 (ip), vehicle: water
  T/C: 127 % of control (2×)
dose: 100.0 mg/kg/injection, schedule: Q01DX010 (ip), vehicle: water
  T/C: 136 % of control (3×)
dose: 125.0 mg/kg/injection, schedule: Q01DX010 (ip), vehicle: water
  T/C: 136 and 145 % of control
dose: 200.0 mg/kg/injection, schedule: Q01DX010 (ip), vehicle: water
  survivor count: 1 of 6

## CC1=Cc2ccc(C)cc2C(=O)C1=O
dose: 12.5 mg/kg/injection, schedule: Q01DX009 (ip), vehicle: Klucel (hydroxypropylcellulose) (HPC)
  survivor count: 2 of 6

## CC1=CC(C(O)CC(C)C)C(C)(Cc2ccc(C)cn2)NC1c1ccccc1 (centres undefined)
dose: 50.0 mg/kg/injection, schedule: Q01DX009 (ip), vehicle: saline with Tween-80
  survivor count: 1 of 6
[1]
  survivor count: 0 of 6
[2]
  survivor count: 0 of 6

## CN(N)c1ccccc1
dose: 25.0 mg/kg/injection, schedule: Q04DX003 (ip), vehicle: saline with Tween-80
  T/C: 125 % of control

## C[N+](C)(C)C12CCCCCC1SC2 (centres undefined)
dose: 100.0 mg/kg/injection, schedule: Q04DX003 (ip), vehicle: saline
  survivor count: 4 of 6

## CC(=O)OC(C)(C)/C=C/C(=O)[C@](C)(O)[C@H]1[C@H](O)C[C@@]2(C)[C@@H]3CC=C4[C@@H](C[C@H](O)[C@H](O)C4(C)C)[C@]3(C)C(=O)C[C@]12C
dose: 266.0 mg/kg/injection, schedule: Q01DX010 (ip), vehicle: saline
  survivor count: 6 of 6
dose: 400.0 mg/kg/injection, schedule: Q01DX010 (ip), vehicle: saline
  survivor count: 1 of 6
dose: 600.0 mg/kg/injection, schedule: Q01DX010 (ip), vehicle: saline
  survivor count: 0 of 6

## CCNC(C)(C)C(S)c1ccc(Cl)s1 (centres undefined)
dose: 50.0 mg/kg/injection, schedule: Q04DX003 (ip), vehicle: saline with Tween-80
  T/C: 145 % of control
[2]
  survivor count: 3 of 6
[3]
  survivor count: 0 of 6
dose: 400.0 mg/kg/injection, schedule: Q04DX003 (ip), vehicle: saline with Tween-80
  survivor count: 2 of 6

## C#CC(C)(C)NC(=O)NC12CC3CC(CC(C3)C1)C2
dose: 100.0 mg/kg/injection, schedule: Q01DX001 (ip), vehicle: saline with Tween-80
  survivor count: 6 of 6

## N#C/C(C(=N)c1ccccc1)=C1\SS/C(=C(\C#N)C(=N)c2ccccc2)S1
dose: 3.0 mg/kg/injection, schedule: Q01DX009 (ip), vehicle: saline with Tween-80
  T/C: 135 % of control
dose: 6.0 mg/kg/injection, schedule: Q01DX009 (ip), vehicle: saline with Tween-80
  T/C: 126 % of control

## COc1cc([C@@H]2c3cc4c(cc3[C@H](OC(C)=O)[C@H]3COC(=O)[C@@H]23)OCO4)cc(OC)c1OC
dose: 33.0 mg/kg/injection, schedule: Q01DX009 (ip), vehicle: saline with Tween-80
  T/C: 136 % of control [5 of 6 alive]
dose: 44.0 mg/kg/injection, schedule: Q04DX003 (ip), vehicle: saline sonified
  survivor count: 6 of 6
dose: 75.0 mg/kg/injection, schedule: Q01DX009 (ip), vehicle: saline with Tween-80
  survivor count: 4 of 6
dose: 88.0 mg/kg/injection, schedule: Q04DX003 (ip), vehicle: saline with Tween-80
  T/C: 130 % of control [5 of 6 alive]
dose: 100.0 mg/kg/injection, schedule: Q01DX010 (ip), vehicle: carboxymethylcellulose (CMC)
  survivor count: 6 of 6
dose: 100.0 mg/kg/injection, schedule: Q04DX003 (ip), vehicle: saline sonified
  T/C: 133 % of control
dose: 132.0 mg/kg/injection, schedule: Q04DX003 (ip), vehicle: saline with Tween-80
  T/C: 140 % of control
dose: 200.0 mg/kg/injection, schedule: Q04DX003 (ip), vehicle: saline with Tween-80
  T/C: 140 % of control
dose: 300.0 mg/kg/injection, schedule: Q04DX003 (ip), vehicle: saline with Tween-80
  survivor count: 4 of 6 and 6 of 6

## CCCCCCCCCCCCS(=O)(=O)O (tested in a mixture with another compound)
dose: 400.0 mg/kg/injection, schedule: Q04DX003 (ip), vehicle: Klucel (hydroxypropylcellulose) (HPC)
  survivor count: 2 of 5

## O=S(=O)([O-])[O-].OCCNCCNCC[OH2+].OCCNCCNCC[OH2+].[Ni+2]
[4]
  survivor count: 5 of 6
dose: 100.0 mg/kg/injection, schedule: Q01DX009 (ip), vehicle: saline
  survivor count: 3 of 6
dose: 200.0 mg/kg/injection, schedule: Q01DX009 (ip), vehicle: saline
  survivor count: 0 of 6

## CC1=CCCC(C)C12CCC(C(C)(C)O)C2 (centres undefined)
[3]
  survivor count: 5 of 6

## O=S(=O)(O)c1ccc(/C2=c3\cc/c([n-]3)=C(\c3ccc(S(=O)(=O)O)cc3)c3ccc([n-]3)/C(c3ccc(S(=O)(=O)O)cc3)=c3/cc/c([n-]3)=C(\c3ccc(S(=O)(=O)O)cc3)c3ccc2[n-]3)cc1.[Zn]
dose: 31.25 mg/kg/injection, schedule: Q01DX009 (ip), vehicle: saline with Tween-80
  T/C: 132 % of control
dose: 125.0 mg/kg/injection, schedule: Q01DX009 (ip), vehicle: saline with Tween-80
  survivor count: 6 of 6
dose: 250.0 mg/kg/injection, schedule: Q01DX009 (ip), vehicle: saline with Tween-80
  survivor count: 0 of 6

## CCOC(=O)c1cc(C(=O)OCC)c(C#N)c(=O)[nH]1
dose: 200.0 mg/kg/injection, schedule: Q01DX009 (ip), vehicle: Klucel (hydroxypropylcellulose) (HPC)
  survivor count: 6 of 6

## C/C=C1\C(=O)OC23C=CC4C(C(=O)OC)C(O)OC(OC12)C43 (centres undefined)
dose: 1.0 mg/kg/injection, schedule: Q01DX009 (ip), vehicle: saline
  T/C: 127 % of control
dose: 2.0 mg/kg/injection, schedule: Q01DX009 (ip), vehicle: saline + alcohol
  T/C: 145 % of control
dose: 4.0 mg/kg/injection, schedule: Q01DX009 (ip), vehicle: saline + alcohol
  T/C: 140 % of control

## O=C1C(Cl)=C(Sc2nc3ccccc3s2)C(=O)c2ccccc21
dose: 100.0 mg/kg/injection, schedule: Q01DX005 (ip), vehicle: saline with Tween-80
  survivor count: 0 of 5
dose: 200.0 mg/kg/injection, schedule: Q01DX005 (ip), vehicle: saline with Tween-80
  survivor count: 0 of 5

## CCOC(=O)c1c[nH]n2c(=S)ncnc12
[2]
  T/C: 127 % of control
[3]
  survivor count: 3 of 6

## CSc1nnc(/C=C/c2ccc3c(c2)OCO3)c(=O)n1N
dose: 400.0 mg/kg/injection, schedule: Q04DX002 (ip), vehicle: saline with Tween-80
  survivor count: 0 of 6

## O=[N+]([O-])c1ccc(/C=C2\c3ccccc3-c3nc4ccccc4nc32)cc1
dose: 75.0 mg/kg/injection, schedule: Q01DX001 (ip), vehicle: other
  survivor count: 6 of 6

## CC(CCCN(CCCl)CCCl)Nc1ccnc2cc(Cl)ccc12 (centres undefined)
dose: 0.44 mg/kg/injection, schedule: Q01DX009 (ip), vehicle: saline
  T/C: 133 % of control
dose: 1.5 mg/kg/injection, schedule: Q01DX009 (ip), vehicle: saline
  T/C: 129 % of control
dose: 5.0 mg/kg/injection, schedule: Q04DX003 (ip), vehicle: saline
  survivor count: 5 of 6
dose: 10.0 mg/kg/injection, schedule: Q04DX003 (ip), vehicle: saline
  survivor count: 3 of 6
[5]
  survivor count: 0 of 6
dose: 20.0 mg/kg/injection, schedule: Q04DX003 (ip), vehicle: saline
  survivor count: 1 of 6
dose: 25.0 mg/kg/injection, schedule: Q01DX009 (ip), vehicle: saline
  survivor count: 0 of 6
[4]
  survivor count: 0 of 6

## CCCCNC(C)(C)C(SSSC(c1ccco1)C(C)(C)NCCCC)c1ccco1 (centres undefined)
dose: 100.0 mg/kg/injection, schedule: Q04DX003 (ip), vehicle: saline with Tween-80
  T/C: 125 % of control

## O=C(N1CCCC1)C(F)(F)C(F)(F)C(F)(F)F
[2]
  survivor count: 6 of 6

## CO[C@@H](C=O)O[C@@H](C=O)CO
[5]
  T/C: 130 % of control
dose: 25.0 mg/kg/injection, schedule: Q04DX003 (ip), vehicle: saline
  T/C: 130 % of control
dose: 400.0 mg/kg/injection, schedule: Q04DX003 (ip), vehicle: saline
  survivor count: 2 of 6

## CCCCCCCC(=O)Oc1c(Cl)c(Cl)c(C#N)c(Cl)c1C#N
[1]
  T/C: 134 % of control [5 of 6 alive]
[2]
  survivor count: 0 of 6

## CC(=O)Oc1cc2c[n+](C)c3c4cc(OC(C)=O)c(OC(C)=O)cc4ccc3c2cc1OC(C)=O
dose: 240.0 mg/kg/injection, schedule: Q01DX009 (ip), vehicle: saline
  survivor count: 5 of 6

Source: PubChem BioAssay AID328 (DTP/NCI, 2004)
